In patent publication EP1345618B1, “CHLORZOXAZONE FOR THE TREATMENT OF PSORIASIS” (Switch Biotech Aktiengesellschaft, priority 2000, dated 2002):

Test system: mIK1
Assay: TaqMan analysis of mIK1 expression in mouse skin and wound biopsies
Type: in vivo, Maus
Conditions: for Rel. mIK1 cDNA Menge: BALB/c mice, Dexamethason 0,5 mg/kg i.p. twice daily for 5 days, control intact skin = 1

C[C@@H]1C[C@H]2[C@@H]3CCC4=CC(=O)C=C[C@]4(C)[C@@]3(F)[C@@H](O)C[C@]2(C)[C@@]1(O)C(=O)CO [Dexamethason]
Anstieg der mIK1-Expression (Faktor), Wunde gegen intakte Haut (Dexamethason-treated, poorly healing wounds): 2,2 | Rel. mIK1 cDNA Menge (day 1 wound): 2,68 | Rel. mIK1 cDNA Menge (intact skin): 1,20
